Data published in publication doi:10.1101/102442.
Results are given in words; binding and its absence hold for the method and conditions named. For part of these data: In cells and extracts the contact can be indirect. Some results given as binding are weak or reduced against the parent protein; the word gives no strength. For part of these data: Where a sequence is shown, tags or fusion partners need not be part of it.

Chains of the proteins cited; added tags and fusions are not shown.
UniProt Q6WKZ8, whole entry: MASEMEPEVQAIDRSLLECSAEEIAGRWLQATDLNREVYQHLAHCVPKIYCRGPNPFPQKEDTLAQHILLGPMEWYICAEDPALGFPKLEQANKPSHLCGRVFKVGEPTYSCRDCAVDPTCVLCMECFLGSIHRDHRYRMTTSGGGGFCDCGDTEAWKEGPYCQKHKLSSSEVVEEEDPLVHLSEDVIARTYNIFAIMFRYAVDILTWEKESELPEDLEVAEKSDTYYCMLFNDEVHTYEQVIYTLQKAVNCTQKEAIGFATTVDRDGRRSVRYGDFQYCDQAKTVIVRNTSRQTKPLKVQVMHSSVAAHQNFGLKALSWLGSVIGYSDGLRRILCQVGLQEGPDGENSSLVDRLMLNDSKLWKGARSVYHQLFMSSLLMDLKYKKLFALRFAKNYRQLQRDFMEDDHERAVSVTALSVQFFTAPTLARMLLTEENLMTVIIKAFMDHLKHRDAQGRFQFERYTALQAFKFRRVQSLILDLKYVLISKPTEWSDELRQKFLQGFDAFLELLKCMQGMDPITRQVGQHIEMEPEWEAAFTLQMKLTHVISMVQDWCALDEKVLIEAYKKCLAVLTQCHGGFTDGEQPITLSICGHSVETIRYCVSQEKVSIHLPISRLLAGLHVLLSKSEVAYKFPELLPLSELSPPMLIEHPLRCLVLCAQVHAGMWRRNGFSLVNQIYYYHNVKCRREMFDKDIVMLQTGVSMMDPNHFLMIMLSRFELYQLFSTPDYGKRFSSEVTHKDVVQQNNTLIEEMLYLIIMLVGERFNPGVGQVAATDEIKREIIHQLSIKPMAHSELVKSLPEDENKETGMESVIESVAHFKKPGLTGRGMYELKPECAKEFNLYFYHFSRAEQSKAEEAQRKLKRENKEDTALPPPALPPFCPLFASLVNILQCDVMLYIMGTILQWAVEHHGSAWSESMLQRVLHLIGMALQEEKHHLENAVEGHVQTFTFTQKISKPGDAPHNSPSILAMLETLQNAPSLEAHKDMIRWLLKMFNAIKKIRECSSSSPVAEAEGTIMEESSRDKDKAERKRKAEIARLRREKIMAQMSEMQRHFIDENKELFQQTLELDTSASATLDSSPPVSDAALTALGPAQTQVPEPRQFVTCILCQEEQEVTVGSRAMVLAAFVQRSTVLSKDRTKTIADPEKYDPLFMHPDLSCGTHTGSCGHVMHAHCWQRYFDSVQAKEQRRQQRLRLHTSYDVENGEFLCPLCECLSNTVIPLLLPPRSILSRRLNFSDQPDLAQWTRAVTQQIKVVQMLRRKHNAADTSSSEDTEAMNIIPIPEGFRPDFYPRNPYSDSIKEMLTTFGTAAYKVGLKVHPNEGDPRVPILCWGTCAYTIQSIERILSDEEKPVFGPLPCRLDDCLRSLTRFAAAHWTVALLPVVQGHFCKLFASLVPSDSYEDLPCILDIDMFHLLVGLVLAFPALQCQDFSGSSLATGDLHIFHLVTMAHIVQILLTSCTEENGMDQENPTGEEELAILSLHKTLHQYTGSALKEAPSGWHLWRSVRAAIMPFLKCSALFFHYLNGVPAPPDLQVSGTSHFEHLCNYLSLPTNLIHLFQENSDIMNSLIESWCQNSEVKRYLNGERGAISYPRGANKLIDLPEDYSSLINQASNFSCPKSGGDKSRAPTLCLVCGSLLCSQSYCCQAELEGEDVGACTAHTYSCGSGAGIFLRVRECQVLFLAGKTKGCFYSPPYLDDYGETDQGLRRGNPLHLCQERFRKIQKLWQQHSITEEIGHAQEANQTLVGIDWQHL

Key:
[1] = biological target: T1, TEX19.1-YFP (mouse ESCs) (mouse) (UniProt Q99MV2); test: co-IP
T1 sequence: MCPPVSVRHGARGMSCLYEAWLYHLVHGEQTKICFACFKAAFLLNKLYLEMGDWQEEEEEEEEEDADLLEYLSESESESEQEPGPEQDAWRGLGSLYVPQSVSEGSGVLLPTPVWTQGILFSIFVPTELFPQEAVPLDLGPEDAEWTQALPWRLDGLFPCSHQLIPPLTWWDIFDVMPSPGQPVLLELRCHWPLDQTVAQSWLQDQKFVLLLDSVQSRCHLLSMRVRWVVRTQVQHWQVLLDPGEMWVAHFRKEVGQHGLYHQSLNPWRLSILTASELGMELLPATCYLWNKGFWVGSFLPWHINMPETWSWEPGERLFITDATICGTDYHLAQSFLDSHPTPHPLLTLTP

[2] = biological target: T2, TEX19.1-YFP (HEK293 / HEK293T cells) (mouse) (UniProt Q99MV2); test: co-IP
T2 sequence: T1 sequence

[3] = biological target: UBR2 (endogenous, mouse ESCs) (mouse (endogenous in mouse ESCs)) (UniProt Q6WKZ8); test: SEC

For “UBR2 (endogenous, mouse ESCs) (from UniProt Q6WKZ8 1-1755) (enzyme)”, the binding [1] was “binds”.

“FLAG-UBR2 (from UniProt Q6WKZ8 1-1755) (enzyme)” was tested, and the binding [2] was “binds”.

B1: TEX19.1 (endogenous, mouse ESCs) (protein, UniProt Q99MV2 1-351)
chain: T1 sequence
With B1 the binding [3] was “binds”.
